From patent US8026257B2 (Bristol-Myers Squibb Company, priority 2007, dated 2011)
pIC50: −log10 of the molar value. Where two headings read alike, the source gives them in different places. The match of structure and compound is tentative.

Sequences of proteins named here, by UniProt entry; tags and fusion partners are left off.
UniProt P25103, whole entry: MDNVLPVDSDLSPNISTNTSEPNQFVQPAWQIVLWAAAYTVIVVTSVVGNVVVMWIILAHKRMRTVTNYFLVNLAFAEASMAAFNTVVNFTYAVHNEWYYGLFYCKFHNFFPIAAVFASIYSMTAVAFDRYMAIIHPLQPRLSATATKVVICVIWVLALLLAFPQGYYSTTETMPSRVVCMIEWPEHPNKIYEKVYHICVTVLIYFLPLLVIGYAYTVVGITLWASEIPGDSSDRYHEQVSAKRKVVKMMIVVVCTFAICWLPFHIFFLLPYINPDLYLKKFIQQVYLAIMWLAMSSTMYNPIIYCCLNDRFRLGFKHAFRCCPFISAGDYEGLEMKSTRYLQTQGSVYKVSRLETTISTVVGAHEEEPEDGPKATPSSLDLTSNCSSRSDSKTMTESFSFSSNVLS
UniProt P31645, whole entry: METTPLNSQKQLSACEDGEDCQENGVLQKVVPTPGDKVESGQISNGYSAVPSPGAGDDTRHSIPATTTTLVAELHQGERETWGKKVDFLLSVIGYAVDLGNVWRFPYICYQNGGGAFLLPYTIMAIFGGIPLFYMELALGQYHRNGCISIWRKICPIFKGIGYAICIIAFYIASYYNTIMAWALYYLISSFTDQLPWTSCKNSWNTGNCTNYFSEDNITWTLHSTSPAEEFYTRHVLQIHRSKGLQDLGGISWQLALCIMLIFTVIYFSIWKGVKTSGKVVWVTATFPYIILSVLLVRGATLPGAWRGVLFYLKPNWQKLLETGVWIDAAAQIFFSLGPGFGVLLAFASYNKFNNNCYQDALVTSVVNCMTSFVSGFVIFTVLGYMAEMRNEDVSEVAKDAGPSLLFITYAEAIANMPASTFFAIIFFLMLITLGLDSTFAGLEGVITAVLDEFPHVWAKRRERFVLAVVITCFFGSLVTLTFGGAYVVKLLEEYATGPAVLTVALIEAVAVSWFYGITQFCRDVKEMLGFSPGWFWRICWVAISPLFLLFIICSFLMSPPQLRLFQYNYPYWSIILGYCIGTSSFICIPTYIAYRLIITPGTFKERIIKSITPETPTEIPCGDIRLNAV

Legend:
NK-1 = NK-1 (Homo sapiens, UniProt P25103); assay: NK1 radioligand binding assay ([125I]Substance P, U373 membranes); conditions: read-out: NK-1 IC50, U373 cell membranes, 200 pM [125I]Substance P, 1 hour at room temperature
Description: (§1) NK-1 Binding assay. Crude membrane suspensions were prepared for the NK1 and SERT radioligand binding assays from U373 cells or recombinant HEK-293 cells expressing hSERT, respectively. Cells were harvested from T-175 flasks as follows. The medium is removed from the flasks and the cells rinsed with HBSS without Ca and without Mg. The cells are then incubated for 5-10 minutes in 10 mM Tris-Cl, pH 7.5, 5 mM EDTA before the cells are lifted with a combination of pipetting and scraping, as needed. To prepare membranes, the cell suspension is collected into centrifuge bottles and homogenized for 30 seconds with a Polytron homogenizer. The suspension is centrifuged for 30 min@32,000×g, 4° C., then the supernatant is decanted and the pellet resuspended and homogenized in 50 mM Tris-Cl, pH 7.5, 1 mM EDTA for 10 seconds. The suspension is then centrifuged again for 30 min@32,000×g, 4° C. The supernatant is decanted and the pellet resuspended in 50 mM Tris-Cl, pH 7.5, 1 mM EDTA and briefly homogenized. […]
NK1 radioligand binding assay. […] The plates are air-dried overnight, 12 ul/well of MicroScint scintillation fluid added, and the plates counted in a Trilux.
(§2) Data analysis. […] The radioligand concentration chosen for each assay corresponds to the Kd concentration determined through saturation binding analysis for each assay.

hSERT = hSERT (Homo sapiens, UniProt P31645); assay: SERT radioligand binding assay ([125I]RTI-55, HEK-hSERT membranes); conditions: read-out: SERT IC50, HEK-293 hSERT membranes, 260 pM [125I]RTI-55, 1 hour at room temperature
Description: as §1
SERT radioligand binding assay. […] The plates are air-dried overnight, 12 ul/well of MicroScint scintillation fluid added, and the plates counted in a Trilux.
as §2

SMILES | pIC50 (NK-1; tested form: TFA) | pIC50 (hSERT; tested form: TFA) | pIC50 (NK-1) | pIC50 (hSERT)
CN1CCC(COCc2cc(C(F)(F)F)cc3nc[nH]c23)(c2ccccc2)CC1 | 6.52 to 7.00 | 7.00 to 11.00 | – | –
CC(OCC1(c2ccccc2)CCNCC1)c1cc(Cl)cc2cn(C)nc12 (racemic) | – | – | 7.00 to 11.00 | 7.00 to 11.00
